At least one compound was matched to its structure with a doubt left.
Test: Solubility test

Compound: CCOc1nc2cccc(C(=O)[O-])c2n1Cc1ccc(-c2ccccc2-c2noc(=O)[nH]2)cc1.C[N+](C)(C)CCO [Example 1]
- Solubility in Ethanol (g sample : ml solvent) (1 g of sample dissolved in stated ml of ethanol at room temperature): (1:120)
- Solubility in Methanol (g sample : ml solvent) (1 g of sample dissolved in stated ml of methanol at room temperature): (1:40)

From US9233954B2, “Organic amine salts of Azilsartan, preparation method and use thereof” (Jiangsu Hansoh Pharmaceutical Co., Ltd., priority 2011, dated 2016)
